# Among all 220,000 compounds or so, about 770 (0.35%) were called active. Inconclusive results, whose numbers are uncertain, are shown with a selection of clear calls. No stated cut-off is given here; in the data, active means binding response below about 49% or above about 150%; inconclusive means no clear call, values can overlap the other calls; inactive means in between.
# The chains behind the UniProt entries cited, without tags or fusion partners.
# UniProt P09471, whole entry, looked up: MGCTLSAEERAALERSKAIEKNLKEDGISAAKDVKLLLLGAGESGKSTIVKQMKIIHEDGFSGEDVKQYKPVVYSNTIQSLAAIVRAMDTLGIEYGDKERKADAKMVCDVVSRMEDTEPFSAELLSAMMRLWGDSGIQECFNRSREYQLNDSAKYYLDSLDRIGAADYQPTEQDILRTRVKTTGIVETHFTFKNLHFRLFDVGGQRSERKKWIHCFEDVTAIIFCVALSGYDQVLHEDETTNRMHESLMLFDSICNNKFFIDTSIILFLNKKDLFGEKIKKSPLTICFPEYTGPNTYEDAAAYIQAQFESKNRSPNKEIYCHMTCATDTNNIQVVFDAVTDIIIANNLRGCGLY
# Target: Guanine nucleotide-binding protein G(o) subunit alpha (Homo sapiens) (UniProt P09471)
# Experiment: RGS7-Galphao binding modulators, primary screen, biochemical, multiplexed bead flow cytometry (AID 1439);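 further: fluorescent Galphao held in activated GDP-AlF4 state binding bead-coupled RGS7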
# Conditions: at 10 µM, actives lie on both sides
row,SMILES,binding response (% of control)
1,Cc1nc(CSc2n[nH]c(=O)n2-c2cccc(F)c2)cs1,inconclusive: 98.7%
2,CSc1nc2cc(Oc3cccc(Cl)c3Cl)c(Cl)cc2[nH]1,inactive: 106%
3,Cc1ccc2nc(SCC(=O)Nc3ncccn3)[nH]c2c1,inconclusive: -56.2%
4,O=C1NC[C@H](c2ccccc2)N(CCc2cccc(F)c2)C1=O,inconclusive: 80.8%
5,Cc1onc(-c2c(Cl)cccc2Cl)c1NC(=O)NNc1c(Cl)cncc1Cl,inconclusive: 18.7%
6,COc1ccc(CSc2nnc(C)n2N)cc1Br,inactive: 104%
7,C#CCOCCOCCOCCNc1nc(N2CCN(C(=O)[C@H](CCC(=O)O)n3cc(C(N)Cc4ccc(O)cc4)nn3)CC2)nc(N2CCN(C(=O)[C@H](Cc3ccc(O)cc3)n3cc(C(N)CC(C)C)nn3)CC2)n1 (stereo partly drawn),inconclusive: 29.9%
8,COC(=O)c1cn(NC(=O)c2cc([N+](=O)[O-])ccc2F)c(=O)c2ccccc12,inconclusive: 88.2%
9,CN(C)CC(C)(C)CNS(=O)(=O)c1ccc(Cl)s1,inactive: 104%
10,Cc1ccc(-c2cc(C(=O)O)n(-c3ccc(S(N)(=O)=O)cc3)n2)cc1,inconclusive: 108%
11,COCCN1CCn2c(nc3cc(Nc4nnc(C)c5ccccc45)ccc32)C1,inconclusive: 117%
12,COc1ccccc1C(=O)Nc1ccc2c(c1)nc(CCNC(=O)c1ccccc1)n2C,inconclusive: 158%
13,O=C(/C=C/c1ccc(O)c(O)c1)OC1C(O)CC(OC(=O)/C=C/c2ccc(O)c(O)c2)(C(=O)O)CC1O (stereo not drawn),inconclusive: 217%
14,Cc1ccc(NC(=O)Cc2ccc3c(c2)OCCO3)cc1S(=O)(=O)N1CCCCC1,inconclusive: 80.1%
15,COc1ccc2nc(SCC(=O)Nc3ccccc3C)[nH]c2c1,inactive: 110%
16,CC1(/[N+]([O-])=C\c2ccccc2F)CCCCC1=O (stereo not drawn),inconclusive: 90.1%
17,O=[N+]([O-])c1ccc(C2=NN(c3ccccc3)C(c3ccco3)C2)cc1 (stereo not drawn),inconclusive: 375%
18,O=c1nc2sc3ccccc3n2c(=O)n1-c1ccc(Cl)cc1,inconclusive: 114%
19,COc1ccc(CCN2C(=O)CC(N3CCC(C(N)=O)CC3)C2=O)cc1OC (stereo not drawn),inconclusive: 82%
20,CCc1ccc(OCC(=O)NN2Cc3ccccc3C2=N)cc1,inconclusive: 116%
21,COc1ccc(N2CCN(C(CNC(C)=O)c3ccco3)CC2)cc1 (stereo not drawn),inactive: 106%
22,O=C(CN1C(=O)NC2NC(=O)NC21)N/N=C/c1ccccc1O (stereo not drawn),inconclusive: 86.3%
23,Cc1oc(C(C)(C)C)cc1C(=O)Nc1ccc(N2CCOCC2)cc1,inconclusive: 248%

# Single entries from above:
# binding response (% of control) with Cc1ccc2nc(SCC(=O)Nc3ncccn3)[nH]c2c1 reads inconclusive: -56.2%
# binding response (% of control) with COc1ccc(N2CCN(C(CNC(C)=O)c3ccco3)CC2)cc1 (stereo not drawn) reads inactive: 106%
